PubChem BioAssay AID445 (National Center for Advancing Translational Sciences (NCATS), 2006)
This is one part of the list. Shown are side measurements of this screen, not its main read-out; they come without a call. Compounds called inactive in the main read-out are mostly missing here. Words in brackets tell the shape of the fitted curve; partial curves, single points and poor fits give uncertain potencies.

Experiment: IkB Signaling
Conditions: ABC-DLBCL IkBa-CBG/CBR dual luciferase ratio (green luciferase fused to IkBa over red control in OCI-Ly3 lymphoma cells), 4 h
In short: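 Curves were fitted separately to fusion (green), unfused (red) and ratio luminescence, then classed by r2, magnitude and activity. Cells: OCI-Ly3, 4 h compound plus doxycycline at 37C; 10 uM MG-132 defined full response.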

[1] = measured here: IkB-luc green channel
[2] = measured here: control luc red channel
[3] = measured here: control luc red channel unless noted

**Q.** Which AC50 [1] does the source give for `CCCn1c(Nc2nc3ccccc3n2C)nc2ccccc21` here?
**A.** 10 µM [rising, single point]

**Q.** What about the AC50 [2] of the same compound?
**A.** 12.6 µM [falling, partial curve]

**Q.** For `N#Cc1ccc(C(=O)N2CCN(c3nc4ccc(F)cc4s3)CC2)cc1`, which AC50 [3] is on record?
**A.** 39.8 µM [falling, single point]

**Q.** For `COc1ccc(-c2oc3ncn4nc(-c5ccc(Cl)cc5)nc4c3c2-c2ccc(OC)cc2)cc1`, which AC50 [3] is on record?
**A.** 0.0398 µM [rising, full curve]

**Q.** Which AC50 [3] does the source give for `COc1cc2c(cc1OC)C(c1ccc(Cl)cc1)N(c1ccc(C)c(F)c1)C(=O)C2` (stereo not drawn) here?
**A.** 31.6 µM [falling, partial curve]

**Q.** With `CN1C(C(=O)Nc2ccc(OC(F)(F)F)cc2)=CC(c2ccc3c(c2)OCO3)=NS1(=O)=O` as the compound, how does the AC50 [3] read?
**A.** 25.1 µM [falling, single point]

**Q.** With `CCN(CC)c1ccc(NS(=O)(=O)c2ccc3c(c2)CCCN3C(C)=O)c(C)c1` as the compound, how does the AC50 [3] read?
**A.** 39.8 µM [falling, single point]

**Q.** With `COc1ccc(C2c3c(n(C)c4ccccc34)C(=O)N2CC(=O)Nc2ccc(Cl)cc2)cc1` (stereo not drawn) as the compound, how does the AC50 [3] read?
**A.** 10 µM [falling, partial curve]

**Q.** For `CCOC(=O)c1c(C)oc2ncnc(NCCc3ccccc3)c12`, which AC50 [3] is on record?
**A.** 39.8 µM [falling, single point]

**Q.** With `CCCN1CCN(CCNC(=O)Nc2cc(OC)cc(OC)c2)CC1` as the compound, how does the AC50 [3] read?
**A.** 31.6 µM [falling, partial curve, poor fit]

**Q.** Which AC50 [3] does the source give for `Cc1ccc(S(=O)(=O)CCSc2nc(C)cc(C)c2C#N)cc1` here?
**A.** 15.8 µM [falling, partial curve]

**Q.** For `Cc1ccc(C)c(NC(=O)CCCn2nc(C)c3sc4ccccc4c3c2=O)c1`, which AC50 [3] is on record?
**A.** 3.98 µM [rising, partial curve]

**Q.** For `COc1cc(CN(C(=O)COc2ccc(C)c(C)c2)c2ccccn2)cc(OC)c1OC`, which AC50 [3] is on record?
**A.** 31.6 µM [falling, single point]

**Q.** With `CCOc1ccccc1NC(=O)CC1Nc2ccccc2NC1=O` (stereo not drawn) as the compound, how does the AC50 [3] read?
**A.** 25.1 µM [falling, partial curve]

**Q.** Which AC50 [3] does the source give for `O=C(CSc1oc(-c2ccco2)nc1S(=O)(=O)c1ccc(Cl)cc1)c1ccc(Cl)cc1` here?
**A.** 1 µM [falling, full curve]

**Q.** Which AC50 [3] does the source give for `O=C(CSC1=NCCS1)Nc1ccccc1F` here?
**A.** 12.6 nM [rising, partial curve, poor fit] [measured here: IkB-luc green channel]

**Q.** For `Cc1ccc(CN2c3ccccc3S(=O)(=O)c3ccccc32)cc1`, which AC50 [3] is on record?
**A.** 10 µM [falling, partial curve]

**Q.** For `CCCCC(CC)Cn1c2nc3ccccc3nc2c2c(=N)oc(C)nc21` (stereo not drawn), which AC50 [3] is on record?
**A.** 25.1 µM [falling, single point]

**Q.** With `Cc1ccc(NC(=O)Cn2c(-c3ccc4c(c3)OCO4)cn(-c3ccccc3)c2=O)cc1` as the compound, how does the AC50 [3] read?
**A.** 25.1 µM [falling, partial curve]

**Q.** Which AC50 [3] does the source give for `Cc1ccc(CSc2nc(=O)c3c(n2C)NC(=O)CC3c2ccc(OC(C)C)cc2)cc1` (stereo not drawn) here?
**A.** 20 µM [falling, single point]

**Q.** With `CCC(C(=O)Nc1cccc(C#N)c1)n1c(=O)c(-c2ccccc2NC(C)=O)nc2ccccc21` (stereo not drawn) as the compound, how does the AC50 [3] read?
**A.** 0.316 µM [rising, partial curve, poor fit]

**Q.** Which AC50 [3] does the source give for `Cc1ccc(S(=O)(=O)Nc2cc3c(cc2N2CCOCC2)n(C)c(=O)n3C)c(C)c1` here?
**A.** 0.126 µM [rising, full curve, poor fit]

**Q.** For `CCn1cc(C(=O)NCCc2ccccc2)c(=O)c2cc(S(=O)(=O)N(C)C3CCCCC3)ccc21`, which AC50 [3] is on record?
**A.** 39.8 µM [falling, single point]

**Q.** With `CC(=O)c1[nH]c(C)c(C(=O)NCCc2ccc(C)cc2)c1C` as the compound, how does the AC50 [3] read?
**A.** 31.6 µM [falling, single point]

**Q.** With `COc1ccc(-c2noc(-c3ccc(NCc4ccccc4OC)c([N+](=O)[O-])c3)n2)cc1` as the compound, how does the AC50 [3] read?
**A.** 7.94 µM [falling, partial curve]

**Q.** With `CC(=O)Nc1cccc(C(=O)NCc2ccc3c(c2)CCN3C(C)=O)c1` as the compound, how does the AC50 [3] read?
**A.** 0.01 µM [falling, full curve, poor fit]

**Q.** With `CCOC(=O)Cc1csc(NC(=O)CS(=O)(=O)Cc2ccccc2)n1` as the compound, how does the AC50 [3] read?
**A.** 10 µM [falling, partial curve]

**Q.** Which AC50 [3] does the source give for `CCOc1ccccc1N(C)C(=O)C1CCCN(c2ncnc3onc(-c4ccc(F)cc4)c23)C1` (stereo not drawn) here?
**A.** 39.8 µM [falling, single point]

**Q.** For `Cc1c(CCNC(=O)Cc2ccccc2)sc2nc(-c3ccc(F)cc3)nn12`, which AC50 [3] is on record?
**A.** 31.6 µM [falling, single point]

**Q.** For `O=C(CN1CCN(Cc2ccc(Cl)cc2)C1=O)NCc1ccc(F)cc1`, which AC50 [3] is on record?
**A.** 10 µM [falling, partial curve]

**Q.** Which AC50 [3] does the source give for `CCCCN(CC)CCCNC(=O)c1cc2c(-c3ccc(OC)c(OC)c3)nn(C)c2s1` here?
**A.** 25.1 µM [falling, single point]

**Q.** For `CCN(CC)C(=O)Oc1ccc2c(=O)c(-c3ccc(OC)cc3)c(C)oc2c1`, which AC50 [3] is on record?
**A.** 20 µM [falling, partial curve]

**Q.** With `O=C(NCc1ccc(F)cc1)c1ccc(NC(=O)N2CC3CCCN3c3ccccc32)cc1` (stereo not drawn) as the compound, how does the AC50 [3] read?
**A.** 5.01 µM [falling, partial curve]

**Q.** With `O=C1c2oc3ccc(F)cc3c(=O)c2C(c2cccc([N+](=O)[O-])c2)N1CCCN1CCOCC1` (stereo not drawn) as the compound, how does the AC50 [3] read?
**A.** 20 µM [falling, single point]

**Q.** With `CCc1ccc(CN(C(=O)c2cc3ccccc3oc2=O)C2CCS(=O)(=O)C2)cc1` (stereo not drawn) as the compound, how does the AC50 [3] read?
**A.** 25.1 µM [falling, partial curve]

**Q.** With `Cc1ccc2nc(N(Cc3cccnc3)C(=O)C3COc4ccccc4O3)sc2c1` (stereo not drawn) as the compound, how does the AC50 [3] read?
**A.** 10 µM [rising, partial curve]

**Q.** Which AC50 [3] does the source give for `CCCCNC(=O)CCCn1c(=O)c2ccccc2n(Cc2ccccc2C)c1=O` here?
**A.** 0.0251 µM [rising, full curve]

**Q.** Which AC50 [3] does the source give for `COc1ccc2cc3cc(C(=O)NCC4COc5ccccc5O4)oc3nc2c1` (stereo not drawn) here?
**A.** 3.16 µM [falling, single point]

**Q.** Which AC50 [3] does the source give for `CCc1c(C)sc2c1CCN(Cc1ccc(F)cc1)C2c1ccccc1` (stereo not drawn) here?
**A.** 31.6 µM [falling, partial curve, poor fit]

**Q.** For `CCC(C)(C)n1nnnc1C(c1ccc(O)c(OC)c1)N1CCN(c2nc3ccccc3s2)CC1` (stereo not drawn), which AC50 [1] is on record?
**A.** 15.8 µM [rising, partial curve]

**Q.** What about the AC50 [2] of the same compound?
**A.** 10 µM [falling, partial curve]

**Q.** Which AC50 [3] does the source give for `Cc1coc2cc3oc(=O)c(CC(=O)N4CCCCC4)c(C)c3cc12` here?
**A.** 39.8 µM [falling, single point]

**Q.** For `Cc1cc(C)c2c(=O)cc(C(=O)Nc3nc4ccc(F)cc4s3)oc2c1`, which AC50 [3] is on record?
**A.** 0.0316 µM [falling, full curve]

**Q.** Which AC50 [3] does the source give for `CCCN(CCC)CC(O)Cn1cc(/C=C/C(=O)c2ccc(OC)cc2)c2ccccc21` (stereo not drawn) here?
**A.** 15.8 µM [falling, partial curve]

**Q.** Which AC50 [3] does the source give for `CCC(CC)C(=O)Nc1c(C(=O)N2CCN(c3ccccc3)CC2)oc2ccccc12` here?
**A.** 15.8 µM [falling, partial curve]

**Q.** For `CCC(C)(C)n1nnnc1C(c1cc2ccc(OC)cc2[nH]c1=O)N1CCc2ccccc2C1` (stereo not drawn), which AC50 [1] is on record?
**A.** 10 µM [rising, partial curve]

**Q.** And the AC50 [2]?
**A.** 3.16 µM [falling, partial curve]

**Q.** Which AC50 [3] does the source give for `O=C(Nc1ccc(F)cc1)c1ccc(Cn2nc(N3CCN(c4ccccc4)CC3)ccc2=O)o1` here?
**A.** 2.51 µM [falling, full curve]

**Q.** For `C=CCn1c(=O)[nH]c2cc(C(=O)N3CCN(c4ccc(C(C)=O)cc4)CC3)ccc2c1=O`, which AC50 [3] is on record?
**A.** 25.1 µM [falling, partial curve]

**Q.** Which AC50 [3] does the source give for `Cn1c(=O)c2c(nc(CN3CCN(C(=O)c4ccco4)CC3)n2CCc2ccccc2)n(C)c1=O` here?
**A.** 200 nM [rising, full curve] [measured here: IkB-luc green channel]

**Q.** Which AC50 [3] does the source give for `COc1cccc(-c2cc(C(=O)N3CCN(c4ccccc4OC)CC3)no2)c1` here?
**A.** 25.1 µM [falling, single point]

**Q.** Which AC50 [3] does the source give for `COc1ccc(Cl)cc1NC(=O)Cc1coc2c(C)c(C)ccc12` here?
**A.** 15.8 µM [falling, partial curve]

**Q.** With `O=C(CSc1c2c(nc3ccc(Cl)cc13)CCCC2)NCc1ccccc1Cl` as the compound, how does the AC50 [3] read?
**A.** 5.01 µM [falling, partial curve]

**Q.** With `COc1ccc(CCNC(=O)c2cc(=O)c3cc(C)cc(C)c3o2)cc1OC` as the compound, how does the AC50 [3] read?
**A.** 15.8 µM [falling, single point]

**Q.** For `Cc1cc(C)n(-c2ccc(C(=O)OCc3nnc(-c4ccccc4)o3)cc2)n1`, which AC50 [3] is on record?
**A.** 15.8 µM [falling, partial curve]

**Q.** With `COc1ccc(C(C(O)C(=O)c2c[nH]c3ccccc23)N2CCN(c3ccccc3)CC2)cc1` (stereo not drawn) as the compound, how does the AC50 [3] read?
**A.** 25.1 µM [falling, partial curve]

**Q.** For `CCOc1ccc(OCc2cccc(C(=O)N3CCOCC3)c2)cc1`, which AC50 [3] is on record?
**A.** 5.01 µM [falling, partial curve]

**Q.** For `CC1CCN(c2nc3c(-c4cccc(Br)c4)nnn3c3ccccc23)CC1`, which AC50 [3] is on record?
**A.** 1.26 µM [falling, full curve]

**Q.** Which AC50 [3] does the source give for `COc1ccc(CNC(=O)CCc2c(C)nn(-c3ccc(N4CCCCC4)nn3)c2C)cc1` here?
**A.** 12.6 µM [falling, partial curve]

**Q.** With `Cc1cc(C)n(CCc2nc3c4ccccc4nc(SCc4ccc(Cl)cc4)n3n2)n1` as the compound, how does the AC50 [3] read?
**A.** 3.98 µM [rising, partial curve]

**Q.** For `O=C(NC1(C(F)(F)F)N=C(c2ccccc2)N(C2CCCCC2)C1=O)c1ccc(F)cc1` (stereo not drawn), which AC50 [3] is on record?
**A.** 25.1 µM [falling, single point]

**Q.** With `Cc1ccc(C(=O)CC2(O)C(=O)N(Cc3ccccc3)c3ccccc32)o1` (stereo not drawn) as the compound, how does the AC50 [3] read?
**A.** 25.1 µM [falling, single point]

**Q.** Which AC50 [3] does the source give for `CCOc1ccc(NC(=O)CC2C(=O)N(c3ccc(C)cc3)C(=O)N2C2CCCCC2)cc1` (stereo not drawn) here?
**A.** 3.98 µM [rising, partial curve]
